The campaign covered roughly 290,000 compounds. About 110 (0.038%) were called active. This list was built around the results that the source calls inconclusive (neither active nor inactive); the mix of calls is not that of the screen. Calls follow the shape of the dose curve; as a rule, active = well fitted inhibition curve with a large enough effect in the polarisation, with a control signal flat (not every such curve was filed as active); inconclusive = small, poorly fitted or top-dose-only effect, or effect the other way, or a change in a side signal; inactive = no such curve, though single readings can be large or run the other way; the % refers to the polarisation. Potencies beside an inconclusive call are fits to weak or partial responses and may not hold up. “Side channel” marks fits to a control or component signal instead of the main read-out.
target: Histone-lysine N-methyltransferase 2A (Homo sapiens) (UniProt Q03164); experiment: qHTS Fluorescence Polarization Assay for Inhibitors of MLL CXXC domain - DNA interaction; details: MLL-CXXC / FITC-HOXA9 DNA fluorescence polarization; series mostly up to 115 µM
Outline: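 Fluorescence polarization: 7 uM MLL-CXXC (stock) preincubated 5 min with compounds, then 50 nM fluorescein-HOX-A9 DNA (stock) added; 30 min ambient. Buffer 50 mM Tris-HCl pH 7.5, 50 mM NaCl, 1 mM DTT, 0.05% BSA.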
Potency is read from the fitted curve at half-maximal effect.

Amino acid sequences for entries named in this document (tags omitted).
UniProt Q03164, whole entry, looked up: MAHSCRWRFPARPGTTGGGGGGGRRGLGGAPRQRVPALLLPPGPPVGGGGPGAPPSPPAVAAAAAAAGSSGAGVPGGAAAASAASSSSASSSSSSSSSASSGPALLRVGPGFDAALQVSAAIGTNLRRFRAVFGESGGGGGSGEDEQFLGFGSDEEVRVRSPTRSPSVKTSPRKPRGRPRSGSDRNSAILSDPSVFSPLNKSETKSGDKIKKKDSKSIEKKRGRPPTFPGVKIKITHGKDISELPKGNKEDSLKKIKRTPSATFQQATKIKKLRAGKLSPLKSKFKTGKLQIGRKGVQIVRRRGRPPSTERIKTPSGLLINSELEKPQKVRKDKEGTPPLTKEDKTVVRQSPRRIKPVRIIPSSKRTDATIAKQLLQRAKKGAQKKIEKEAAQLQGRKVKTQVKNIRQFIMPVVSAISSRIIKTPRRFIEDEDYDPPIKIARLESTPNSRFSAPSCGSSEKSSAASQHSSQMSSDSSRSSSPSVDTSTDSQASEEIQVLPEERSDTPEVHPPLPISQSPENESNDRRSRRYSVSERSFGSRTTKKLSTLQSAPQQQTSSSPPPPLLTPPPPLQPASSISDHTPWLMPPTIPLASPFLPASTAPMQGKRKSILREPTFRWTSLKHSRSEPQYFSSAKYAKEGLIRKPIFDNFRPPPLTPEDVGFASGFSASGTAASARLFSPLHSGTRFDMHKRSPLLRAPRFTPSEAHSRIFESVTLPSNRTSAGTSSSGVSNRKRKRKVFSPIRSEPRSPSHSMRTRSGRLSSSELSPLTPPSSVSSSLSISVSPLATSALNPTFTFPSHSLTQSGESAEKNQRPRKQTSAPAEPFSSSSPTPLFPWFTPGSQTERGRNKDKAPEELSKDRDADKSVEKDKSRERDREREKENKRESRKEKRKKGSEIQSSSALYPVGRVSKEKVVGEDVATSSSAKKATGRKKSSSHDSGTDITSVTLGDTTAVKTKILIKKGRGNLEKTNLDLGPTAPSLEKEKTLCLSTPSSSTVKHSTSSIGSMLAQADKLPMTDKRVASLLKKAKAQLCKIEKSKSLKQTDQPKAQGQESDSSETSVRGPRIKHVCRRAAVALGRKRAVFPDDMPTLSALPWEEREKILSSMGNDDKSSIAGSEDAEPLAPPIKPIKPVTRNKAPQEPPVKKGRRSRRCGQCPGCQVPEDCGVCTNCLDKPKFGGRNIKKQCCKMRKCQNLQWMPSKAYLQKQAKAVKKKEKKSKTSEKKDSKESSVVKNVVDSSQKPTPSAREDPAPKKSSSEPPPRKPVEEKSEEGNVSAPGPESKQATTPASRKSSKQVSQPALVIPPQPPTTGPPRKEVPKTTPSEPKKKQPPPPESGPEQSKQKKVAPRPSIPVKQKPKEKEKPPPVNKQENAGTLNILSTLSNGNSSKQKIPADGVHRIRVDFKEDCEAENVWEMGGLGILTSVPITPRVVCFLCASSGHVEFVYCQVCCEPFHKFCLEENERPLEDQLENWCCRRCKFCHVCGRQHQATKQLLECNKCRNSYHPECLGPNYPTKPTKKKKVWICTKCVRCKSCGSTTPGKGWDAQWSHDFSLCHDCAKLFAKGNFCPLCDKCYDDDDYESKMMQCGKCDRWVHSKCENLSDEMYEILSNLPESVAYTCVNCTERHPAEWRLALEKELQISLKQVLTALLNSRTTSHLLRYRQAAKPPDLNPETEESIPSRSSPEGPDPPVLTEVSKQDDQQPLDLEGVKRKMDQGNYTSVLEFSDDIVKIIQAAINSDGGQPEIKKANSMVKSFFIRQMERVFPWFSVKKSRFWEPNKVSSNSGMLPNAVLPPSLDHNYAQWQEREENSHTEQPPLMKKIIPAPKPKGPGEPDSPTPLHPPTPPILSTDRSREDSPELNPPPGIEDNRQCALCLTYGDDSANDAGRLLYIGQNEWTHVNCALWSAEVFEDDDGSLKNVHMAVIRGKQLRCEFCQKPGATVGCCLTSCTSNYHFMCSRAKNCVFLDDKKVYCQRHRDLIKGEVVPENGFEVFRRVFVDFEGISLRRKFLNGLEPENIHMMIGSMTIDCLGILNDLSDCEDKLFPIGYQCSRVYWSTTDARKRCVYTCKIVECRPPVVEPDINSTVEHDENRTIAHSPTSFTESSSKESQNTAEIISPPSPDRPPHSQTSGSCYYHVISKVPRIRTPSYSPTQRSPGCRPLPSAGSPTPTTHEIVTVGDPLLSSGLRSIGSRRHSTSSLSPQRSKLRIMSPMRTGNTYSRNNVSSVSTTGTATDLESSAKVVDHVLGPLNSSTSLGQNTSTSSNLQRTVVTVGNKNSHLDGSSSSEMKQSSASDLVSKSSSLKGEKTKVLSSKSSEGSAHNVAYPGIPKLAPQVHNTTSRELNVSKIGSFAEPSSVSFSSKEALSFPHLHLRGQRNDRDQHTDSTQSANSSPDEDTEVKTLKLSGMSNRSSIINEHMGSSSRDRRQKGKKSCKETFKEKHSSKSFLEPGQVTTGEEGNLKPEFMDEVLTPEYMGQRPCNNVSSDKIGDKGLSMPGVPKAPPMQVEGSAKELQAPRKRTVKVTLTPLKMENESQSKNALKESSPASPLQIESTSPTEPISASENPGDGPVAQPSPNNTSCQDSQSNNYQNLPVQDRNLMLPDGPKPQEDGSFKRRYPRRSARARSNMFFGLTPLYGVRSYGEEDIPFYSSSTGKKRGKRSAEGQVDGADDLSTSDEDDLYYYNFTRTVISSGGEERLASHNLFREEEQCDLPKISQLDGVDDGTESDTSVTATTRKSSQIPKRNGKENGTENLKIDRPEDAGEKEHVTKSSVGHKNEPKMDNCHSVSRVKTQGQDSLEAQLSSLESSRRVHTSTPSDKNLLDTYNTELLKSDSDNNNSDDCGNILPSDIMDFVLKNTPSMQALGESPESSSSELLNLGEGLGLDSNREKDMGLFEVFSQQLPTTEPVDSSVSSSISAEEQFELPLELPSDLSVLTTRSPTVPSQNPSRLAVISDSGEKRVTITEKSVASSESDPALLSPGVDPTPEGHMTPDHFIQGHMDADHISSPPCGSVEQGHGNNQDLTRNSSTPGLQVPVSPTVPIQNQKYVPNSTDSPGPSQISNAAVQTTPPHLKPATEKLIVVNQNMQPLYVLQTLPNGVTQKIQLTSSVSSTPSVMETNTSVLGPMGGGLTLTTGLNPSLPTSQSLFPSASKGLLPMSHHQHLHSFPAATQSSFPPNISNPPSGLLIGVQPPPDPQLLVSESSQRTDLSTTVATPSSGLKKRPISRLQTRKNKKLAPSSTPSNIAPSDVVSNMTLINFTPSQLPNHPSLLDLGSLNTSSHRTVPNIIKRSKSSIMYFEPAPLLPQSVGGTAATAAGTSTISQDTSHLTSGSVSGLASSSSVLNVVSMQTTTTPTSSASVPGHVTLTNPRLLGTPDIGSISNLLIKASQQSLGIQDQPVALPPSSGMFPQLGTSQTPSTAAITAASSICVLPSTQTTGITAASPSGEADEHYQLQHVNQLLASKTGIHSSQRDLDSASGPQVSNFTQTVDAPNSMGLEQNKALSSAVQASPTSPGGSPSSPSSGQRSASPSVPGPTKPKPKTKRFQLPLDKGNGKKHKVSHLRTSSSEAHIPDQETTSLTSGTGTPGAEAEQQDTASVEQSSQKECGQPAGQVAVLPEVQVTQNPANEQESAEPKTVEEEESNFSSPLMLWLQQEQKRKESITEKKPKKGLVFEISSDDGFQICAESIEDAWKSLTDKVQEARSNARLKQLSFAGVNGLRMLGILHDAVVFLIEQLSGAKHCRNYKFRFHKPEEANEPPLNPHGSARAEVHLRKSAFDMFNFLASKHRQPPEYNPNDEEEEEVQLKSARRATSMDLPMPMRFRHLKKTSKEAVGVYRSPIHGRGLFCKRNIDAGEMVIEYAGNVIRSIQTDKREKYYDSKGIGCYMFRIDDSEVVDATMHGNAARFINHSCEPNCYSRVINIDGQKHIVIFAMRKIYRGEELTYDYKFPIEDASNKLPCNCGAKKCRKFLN

Row | SMILES | Potency
1 | Cn1nc(C(=O)OCC(=O)NC2CCS(=O)(=O)C2)c2ccccc2c1=O (stereo unspecified) | inconclusive: 10 µM [fluorescent, side channel, partial curve]
2 | O=C(CSc1nc2ccccc2o1)Nc1nncs1 | inactive
3 | CCN(CC(=O)Nc1ccc(NC(C)=O)cc1)C(=O)/C=C/c1ccc(S(=O)(=O)N2CCCCCC2)cc1 | inconclusive: 14.1 µM [fluorescent, side channel, single point]
4 | O=C(COC(=O)C1CCN(/C=C/C(=O)C(F)(F)F)CC1)Nc1ccccc1 | inconclusive: 14.1 µM [inhibitor, single point]
5 | Cc1nn(C)cc1N1C(=O)c2cccc3c(N)ccc(c23)C1=O | inconclusive: 5.62 µM [fluorescent, side channel, full curve]
6 | N#Cc1sc2nc(-c3cccs3)cc(-c3ccc(Cl)cc3)c2c1N | inactive
7 | COc1cc([N+](=O)[O-])ccc1NC(=O)Nc1cccnc1 | inconclusive: 89.1 µM [quencher, side channel, single point]
8 | CCC(C)c1ccc(NC(=O)NCCN2CCCCC2)cc1 (stereo unspecified) | inactive
9 | N#C/C(=C\c1ccc(C(=O)O)cc1)S(=O)(=O)c1cc(Br)ccc1Br | inconclusive: 35.5 µM [inhibitor, partial curve]
10 | N#CC(C#N)=Cc1cnc(N2CCN(c3ccccc3)CC2)s1 | inconclusive: 31.6 µM [fluorescent, side channel, partial curve]
11 | COc1ccc(OCC(O)CN2C(=O)c3ccccc3C2=O)cc1 (stereo unspecified) | inconclusive: 89.1 µM [inhibitor, single point]
12 | CC(=O)Oc1ccc2oc(-c3ccccc3)c(C(N)=O)c2c1 | inactive
13 | COc1cccc(CNC(=O)C2CCN(c3nn4c(=O)cc(C)nc4s3)CC2)c1 | inactive
14 | CC(=O)NC1C(=O)N(CCN2CCOCC2)c2ccc(Br)cc21 (stereo unspecified) | inconclusive: 1.26 µM [inhibitor, full curve, poor fit]
15 | CSCCC(NC(=O)CCC(=O)OCC(=O)[C@@]1(O)CCC2[C@@H]3CCC4=CC(=O)C=C[C@]4(C)C3[C@@H](O)C[C@@]21C)C(=O)O (stereo partly specified) | inconclusive: 12.6 µM [fluorescent, side channel, single point]
16 | O=C(O)c1cccc(Nc2ccc([N+](=O)[O-])c3nonc23)c1 | inconclusive: 25.1 µM [fluorescent, side channel, partial curve]
17 | O=C(N/N=C/c1cccc2nccnc12)c1ccncc1 | inactive
18 | O=C1CCCN2N=C(SCC(=O)Nc3nc4ccccc4s3)SC2=N1 | inconclusive: 31.6 µM [fluorescent, side channel, partial curve]
19 | COc1ccc2c(C#N)c3ccccn3c2c1 | inconclusive: 56.2 µM [inhibitor, single point]
20 | CCOC(=O)C1CCCN(C(=O)c2ccccc2[N+](=O)[O-])C1 (stereo unspecified) | inconclusive: 70.8 µM [fluorescent, side channel, single point]
21 | Cc1ccc(S(=O)(=O)N(Cc2ccccc2)c2ccccc2C(=O)Nc2ccccc2C(=O)NCc2ccco2)cc1 | inconclusive: 6.31 µM [fluorescent, side channel, full curve, poor fit]

Row | SMILES | Potency
22 | CCCCCCN1C=CC(=C/C=C(\C#N)C(=O)OCC)C=C1 | inconclusive: 6.31 µM [fluorescent, side channel, full curve]
23 | CCOc1ccccc1NC(=O)CNC(=O)Cc1ccccc1 | inconclusive: 44.7 µM [inhibitor, single point]
24 | CCN(CC)c1ccc(/C=C/c2cccc[n+]2C)c(OC)c1 | inconclusive: 39.8 µM [fluorescent, side channel, partial curve]
25 | COC(=O)CC(c1ccc(OC)c(OC)c1)c1ccc(OC)c(OC)c1 | inactive
26 | CCCc1c(C)c2ccc(OCC(C)=O)cc2oc1=O | inactive
27 | CCC(C)NC(=O)CN1C(=O)NC2NC(=O)NC21 (stereo unspecified) | inactive
28 | CCOC(=O)C1(C)NC(c2cccs2)C2C(=O)N(c3ccc(OC)cc3)C(=O)C21 (stereo unspecified) | inconclusive: 10 µM [quencher, side channel, partial curve]
29 | O=C(COc1ccccc1[N+](=O)[O-])OCC(=O)N1CCC(Cc2ccccc2)CC1 | inconclusive: 100 µM [fluorescent, side channel, partial curve, poor fit]
30 | COc1ccc(CCNC(=O)C2c3ccccc3C(=O)N2CCC(C)C)cc1OC (stereo unspecified) | inconclusive: 15.8 µM [fluorescent, side channel, single point]
31 | O=C(CN1CCC(C(O)(c2ccccc2)c2ccccc2)CC1)Nc1ccccc1 | inactive
32 | O=C(/C=C\c1ccccc1)NCC(=O)N/N=C/c1ccc(O)cc1O | inactive
33 | C=CCNC(=O)c1cc2nc(C3CC3)cc(C(F)F)n2n1 | inconclusive: 31.6 µM [inhibitor, partial curve, poor fit]
34 | COC(=O)C1Sc2[nH]c(=O)sc2C2c3ccccc3OC(=O)C12 (stereo unspecified) | inactive
35 | Cc1cc(N)c2ccccc2[n+]1CCCCCCCCCCCCCC[n+]1c(C)cc(N)c2ccccc21 | inconclusive: 7.08 µM [quencher, side channel, full curve]
36 | CN1CCN(C(=O)CCN2C(=O)c3ccccc3C2=O)CC1 | inconclusive: 3.98 µM [inhibitor, partial curve]
37 | COc1ccc(O)c(CN2CCN(C/C=C/c3ccccc3)CC2)c1 | inactive
38 | Cc1ccc(/C=N/Nc2nc(N3CCOCC3)nc(N3CCOCC3)n2)o1 | inconclusive: 15.8 µM [fluorescent, side channel, full curve, poor fit]
39 | CCC(=O)NCCc1nc2cc(NC(=O)COc3ccccc3)ccc2n1C | inconclusive: 11.2 µM [fluorescent, side channel, full curve]
40 | Cc1ccc(Nc2ncnc3sc(C)c(C)c23)cc1 | inactive
41 | COc1cc(NC(=O)CN2CCN(c3ccccc3)CC2)c(C)cc1[N+](=O)[O-] | inconclusive: 11.2 µM [fluorescent, side channel, single point]

An excerpt of these results, with tabs:
Row	SMILES	Potency
25	COC(=O)CC(c1ccc(OC)c(OC)c1)c1ccc(OC)c(OC)c1	inactive
26	CCCc1c(C)c2ccc(OCC(C)=O)cc2oc1=O	inactive

An excerpt taken from the entries so far:
Row | SMILES | Potency
27 | CCC(C)NC(=O)CN1C(=O)NC2NC(=O)NC21 (stereo unspecified) | inactive
28 | CCOC(=O)C1(C)NC(c2cccs2)C2C(=O)N(c3ccc(OC)cc3)C(=O)C21 (stereo unspecified) | inconclusive: 10 µM [quencher, side channel, partial curve]
